Data: patent US20020157126A1 (published 2002)
These are yes or no findings as the source states them, for the method shown. Some binding calls cover weakened binding; strength is not graded here.

Amino acid sequences for entries named in this document (tags omitted). Residues count along the entry.
UniProt P27038, residues 20-513: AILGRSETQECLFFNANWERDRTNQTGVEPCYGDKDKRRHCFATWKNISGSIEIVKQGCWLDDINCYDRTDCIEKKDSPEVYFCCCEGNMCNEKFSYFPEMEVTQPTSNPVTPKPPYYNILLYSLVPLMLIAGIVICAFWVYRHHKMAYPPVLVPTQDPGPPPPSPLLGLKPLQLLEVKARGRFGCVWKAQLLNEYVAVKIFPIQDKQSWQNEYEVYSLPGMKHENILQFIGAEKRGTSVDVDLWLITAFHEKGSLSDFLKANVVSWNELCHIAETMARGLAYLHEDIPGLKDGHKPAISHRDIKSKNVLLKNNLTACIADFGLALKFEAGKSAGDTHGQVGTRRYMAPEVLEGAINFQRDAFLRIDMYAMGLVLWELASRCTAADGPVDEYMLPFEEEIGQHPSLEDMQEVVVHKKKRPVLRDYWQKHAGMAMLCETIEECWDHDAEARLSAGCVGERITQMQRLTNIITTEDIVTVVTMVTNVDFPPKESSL
UniProt P27040, residues 19-536: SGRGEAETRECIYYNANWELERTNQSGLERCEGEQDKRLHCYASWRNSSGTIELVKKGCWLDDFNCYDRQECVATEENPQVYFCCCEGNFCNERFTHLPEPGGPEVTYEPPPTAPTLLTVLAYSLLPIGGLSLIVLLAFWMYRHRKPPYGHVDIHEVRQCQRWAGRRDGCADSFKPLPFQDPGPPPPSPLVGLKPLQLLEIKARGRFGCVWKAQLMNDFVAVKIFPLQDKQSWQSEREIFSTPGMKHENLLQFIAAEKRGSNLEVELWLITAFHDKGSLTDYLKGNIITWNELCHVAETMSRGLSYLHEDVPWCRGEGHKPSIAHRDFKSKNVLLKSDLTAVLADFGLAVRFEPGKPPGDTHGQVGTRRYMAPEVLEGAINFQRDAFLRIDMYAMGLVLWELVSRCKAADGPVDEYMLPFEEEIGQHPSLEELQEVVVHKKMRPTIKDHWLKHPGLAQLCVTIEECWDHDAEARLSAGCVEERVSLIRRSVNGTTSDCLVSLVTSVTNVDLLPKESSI
UniProt O08689, residues 268-376: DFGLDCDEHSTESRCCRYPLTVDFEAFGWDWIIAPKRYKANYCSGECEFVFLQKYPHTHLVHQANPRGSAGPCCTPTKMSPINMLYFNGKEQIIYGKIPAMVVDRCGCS

Key:
[1] = molecular target: activin type IIA receptor (Act RIIA) expressed on transfected COS-7 cells (UniProt P27038); assay: cross-linking and standard receptor binding assays on transfected COS-7 cells
[2] = molecular target: activin type IIB receptor (Act RIIB) expressed on transfected COS cells (UniProt P27040); assay: as above
[3] = molecular target: activin type IIB receptor (Act RIIB) expressed on transfected COS cells (UniProt P27040); assay: radio-iodinated myostatin on Act RIIB-transfected COS cells

Measured: binding

myostatin mature C-terminal dimer (purified from conditioned medium of CHO cells) (from UniProt O08689 268-376) (ligand)
binds: all assays above
